Part of at least one peptide drawing is inferred or uncertain, most often the ends. Where a SMILES comes first, the peptide text is derived from it.
Columns and labels:
[1] = test system: Mycoplasma gallisepticum 1RF; test: Test 4: Mycoplasma gallisepticum 1RF intranasal infection in chickens, oral pre-medication; type: in vivo, chicken; settings: intranasal infection at 14 days
[2] = test system: Mycoplasma gallisepticum 1RF; test: Test 1: Mycoplasma gallisepticum 1RF air sac infection in chickens, subcutaneous pre-medication; type: in vivo, chicken; settings: 0.5 mg/kg/day s.c. at 7, 8, 9, 12 days of age; air sac infection at 13 days; recovery 21 days after infection (group B)

Compound	Inhibition (%) of infection ([1]; 1 mg/kg/day oral at 8, 9, 12, 13 days of age, 20 days after infection (group C)) [%]	Inhibition (%) of infection ([1]; 10 mg/kg/day oral at 8, 9, 12, 13 days of age, 20 days after infection (group B)) [%]	Inhibition (%) of infection [2] [%]
CCCCCCCCCCCCCCCCCC(=O)N[C@H](CCC(=O)N[C@@H](CCCCN)C(=O)N[C@H](C)C(=O)O)C(=O)O [Compound 2] (HELM PEPTIDE1{[CCCCCCCCCCCCCCCCCC(=O)[*:2]].[O=C(O)[C@@H](CCC(=O)[*:2])N[*:1]].K.[dA]}$$$$V2.0)	57	43	
C[C@H](NC(=O)[C@@H](C)O)C(=O)N[C@H](CCC(=O)N[C@@H](CCC[C@@H](N)C(=O)O)C(=O)NCC(=O)O)C(=O)O [Compound 3]			35
